According to the M2OR odorant receptor database:
Positions count from the first letter of the chain named. The entries are a selection whose mix differs from that of the whole data set. Calls are pooled over several reports, among them a noisy single-well screen. Some of the results follow.

Chains of the proteins cited; added tags and fusions are not shown. A line that says so, or that is headed by a name, gives the form on record, which may keep a tag or linker.
O51L1, as listed by the source: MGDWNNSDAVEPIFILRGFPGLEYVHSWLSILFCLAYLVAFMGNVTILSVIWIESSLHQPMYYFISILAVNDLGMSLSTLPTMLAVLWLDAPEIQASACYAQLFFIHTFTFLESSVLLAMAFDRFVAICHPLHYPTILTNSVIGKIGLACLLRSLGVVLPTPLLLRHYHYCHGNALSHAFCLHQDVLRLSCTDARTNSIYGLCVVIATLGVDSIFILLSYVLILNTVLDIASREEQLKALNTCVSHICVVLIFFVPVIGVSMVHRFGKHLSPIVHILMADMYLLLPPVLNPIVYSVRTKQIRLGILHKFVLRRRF
O52E5, as listed by the source: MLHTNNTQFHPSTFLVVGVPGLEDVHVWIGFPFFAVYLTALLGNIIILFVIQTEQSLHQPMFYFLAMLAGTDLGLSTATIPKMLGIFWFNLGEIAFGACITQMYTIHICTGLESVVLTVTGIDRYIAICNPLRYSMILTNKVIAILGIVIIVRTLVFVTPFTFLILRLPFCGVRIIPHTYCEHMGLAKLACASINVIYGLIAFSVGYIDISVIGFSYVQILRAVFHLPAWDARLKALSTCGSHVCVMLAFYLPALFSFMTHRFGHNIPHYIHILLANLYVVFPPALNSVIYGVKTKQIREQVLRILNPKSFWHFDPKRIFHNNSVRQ
O52E8, as listed by the source: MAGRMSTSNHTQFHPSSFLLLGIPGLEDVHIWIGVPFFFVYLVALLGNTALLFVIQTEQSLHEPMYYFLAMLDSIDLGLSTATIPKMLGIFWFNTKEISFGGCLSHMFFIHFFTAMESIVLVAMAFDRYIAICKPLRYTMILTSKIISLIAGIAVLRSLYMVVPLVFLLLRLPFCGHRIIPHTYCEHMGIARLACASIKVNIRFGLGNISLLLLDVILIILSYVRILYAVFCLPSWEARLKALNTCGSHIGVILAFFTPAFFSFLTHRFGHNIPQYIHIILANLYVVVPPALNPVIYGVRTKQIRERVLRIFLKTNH
O52E4, as listed by the source: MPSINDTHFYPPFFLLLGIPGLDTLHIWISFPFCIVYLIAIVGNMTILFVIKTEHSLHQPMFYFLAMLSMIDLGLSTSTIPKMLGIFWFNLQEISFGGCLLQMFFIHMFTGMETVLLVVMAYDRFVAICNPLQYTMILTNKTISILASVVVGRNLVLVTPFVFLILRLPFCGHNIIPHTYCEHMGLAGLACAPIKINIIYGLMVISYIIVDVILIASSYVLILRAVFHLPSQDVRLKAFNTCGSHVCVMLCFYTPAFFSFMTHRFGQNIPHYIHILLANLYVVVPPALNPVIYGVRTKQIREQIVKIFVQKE
O51V1, as listed by the source: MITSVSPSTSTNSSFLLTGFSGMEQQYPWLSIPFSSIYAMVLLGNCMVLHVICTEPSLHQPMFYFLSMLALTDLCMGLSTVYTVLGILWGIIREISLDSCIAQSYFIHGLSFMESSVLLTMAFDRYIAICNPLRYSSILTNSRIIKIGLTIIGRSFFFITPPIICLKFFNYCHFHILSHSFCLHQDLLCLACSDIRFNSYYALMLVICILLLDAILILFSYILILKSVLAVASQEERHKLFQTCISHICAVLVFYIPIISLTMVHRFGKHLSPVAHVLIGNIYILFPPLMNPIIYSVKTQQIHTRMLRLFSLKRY
O52E1, as listed by the source: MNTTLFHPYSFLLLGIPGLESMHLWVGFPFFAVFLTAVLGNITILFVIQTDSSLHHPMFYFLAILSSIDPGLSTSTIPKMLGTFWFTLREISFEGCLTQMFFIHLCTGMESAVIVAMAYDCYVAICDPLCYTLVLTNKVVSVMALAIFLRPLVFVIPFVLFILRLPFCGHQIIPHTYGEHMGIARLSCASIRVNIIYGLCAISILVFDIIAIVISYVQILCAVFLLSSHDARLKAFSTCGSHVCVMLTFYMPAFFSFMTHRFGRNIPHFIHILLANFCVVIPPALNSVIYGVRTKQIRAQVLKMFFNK
O52E2, as listed by the source: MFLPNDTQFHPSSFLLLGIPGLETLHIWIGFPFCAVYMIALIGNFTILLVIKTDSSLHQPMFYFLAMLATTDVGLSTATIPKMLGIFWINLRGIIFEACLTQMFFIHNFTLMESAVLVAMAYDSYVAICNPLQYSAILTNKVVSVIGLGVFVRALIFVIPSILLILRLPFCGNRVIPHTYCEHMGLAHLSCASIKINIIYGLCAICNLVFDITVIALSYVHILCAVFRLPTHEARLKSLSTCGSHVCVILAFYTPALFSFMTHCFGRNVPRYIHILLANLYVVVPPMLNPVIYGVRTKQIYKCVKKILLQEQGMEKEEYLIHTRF

Legend:
Conditions in all cases: stereoisomer not certain
[1] = system: T1, O51G1
T1 sequence (whole entry): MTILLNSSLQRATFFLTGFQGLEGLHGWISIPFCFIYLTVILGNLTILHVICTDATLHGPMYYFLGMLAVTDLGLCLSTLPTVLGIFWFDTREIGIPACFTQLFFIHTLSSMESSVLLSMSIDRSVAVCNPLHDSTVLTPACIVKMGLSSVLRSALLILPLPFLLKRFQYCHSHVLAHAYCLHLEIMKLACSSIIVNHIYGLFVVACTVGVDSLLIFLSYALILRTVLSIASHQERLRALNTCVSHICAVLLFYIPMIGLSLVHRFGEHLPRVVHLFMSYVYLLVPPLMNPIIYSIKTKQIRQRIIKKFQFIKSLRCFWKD
Procedure, shortened: (§1)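 Each entry records the cell line, G-protein, co-transfected protein and tags used. Methods varied with the source, often transient luciferase assays in mammalian cell lines. A receptor–molecule pair is called responsive (active) if the original authors judged its signal statistically different from baseline and non-responsive (inactive) otherwise.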

[2] = system: T2, O51G2
T2 sequence (whole entry): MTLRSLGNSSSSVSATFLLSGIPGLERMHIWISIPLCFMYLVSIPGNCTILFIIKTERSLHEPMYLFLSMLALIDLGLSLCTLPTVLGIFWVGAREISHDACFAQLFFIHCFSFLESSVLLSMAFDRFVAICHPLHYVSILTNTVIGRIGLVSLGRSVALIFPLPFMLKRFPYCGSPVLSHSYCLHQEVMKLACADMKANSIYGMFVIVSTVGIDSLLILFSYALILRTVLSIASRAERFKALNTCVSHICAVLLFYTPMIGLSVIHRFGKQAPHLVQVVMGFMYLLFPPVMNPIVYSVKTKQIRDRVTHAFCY
Procedure, shortened: as §1

[3] = system: T3, O51J1
T3 sequence (whole entry): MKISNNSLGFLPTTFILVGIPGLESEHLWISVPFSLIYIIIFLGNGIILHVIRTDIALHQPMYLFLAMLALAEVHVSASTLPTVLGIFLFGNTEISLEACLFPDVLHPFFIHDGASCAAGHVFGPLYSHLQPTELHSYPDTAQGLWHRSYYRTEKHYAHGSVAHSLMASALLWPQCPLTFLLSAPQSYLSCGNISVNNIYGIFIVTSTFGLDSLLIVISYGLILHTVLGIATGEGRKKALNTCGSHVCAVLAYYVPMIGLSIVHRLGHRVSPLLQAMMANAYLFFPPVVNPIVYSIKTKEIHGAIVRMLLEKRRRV
Procedure, shortened: as §1

[4] = system: T4, O51L1
T4 sequence (whole entry): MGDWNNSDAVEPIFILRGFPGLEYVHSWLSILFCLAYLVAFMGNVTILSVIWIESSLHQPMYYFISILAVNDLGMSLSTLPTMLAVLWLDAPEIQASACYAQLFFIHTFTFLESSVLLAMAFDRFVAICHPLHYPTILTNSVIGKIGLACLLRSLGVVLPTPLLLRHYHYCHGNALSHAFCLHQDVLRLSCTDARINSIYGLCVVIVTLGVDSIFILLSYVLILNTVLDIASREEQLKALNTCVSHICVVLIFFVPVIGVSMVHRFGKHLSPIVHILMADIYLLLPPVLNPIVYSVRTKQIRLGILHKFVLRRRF
Procedure, shortened: as §1

[5] = system: T5, O51L1; remark: listed apart in the source
T5 sequence (whole entry): T4 sequence (whole entry) with I196T, V207A, I281M
Procedure, shortened: as §1

[6] = system: T6, O51M1
T6 sequence (whole entry): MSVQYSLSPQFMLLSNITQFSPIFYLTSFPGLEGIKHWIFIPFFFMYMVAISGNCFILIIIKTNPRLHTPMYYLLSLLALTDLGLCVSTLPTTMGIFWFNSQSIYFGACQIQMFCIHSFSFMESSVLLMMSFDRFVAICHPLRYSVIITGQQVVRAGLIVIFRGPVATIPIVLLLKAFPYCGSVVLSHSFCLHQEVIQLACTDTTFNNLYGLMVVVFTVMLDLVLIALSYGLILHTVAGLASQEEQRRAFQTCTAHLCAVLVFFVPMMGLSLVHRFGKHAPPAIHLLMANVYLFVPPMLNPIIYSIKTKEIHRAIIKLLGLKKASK
Procedure, shortened: as §1

[7] = system: T7, O51Q1
T7 sequence (whole entry): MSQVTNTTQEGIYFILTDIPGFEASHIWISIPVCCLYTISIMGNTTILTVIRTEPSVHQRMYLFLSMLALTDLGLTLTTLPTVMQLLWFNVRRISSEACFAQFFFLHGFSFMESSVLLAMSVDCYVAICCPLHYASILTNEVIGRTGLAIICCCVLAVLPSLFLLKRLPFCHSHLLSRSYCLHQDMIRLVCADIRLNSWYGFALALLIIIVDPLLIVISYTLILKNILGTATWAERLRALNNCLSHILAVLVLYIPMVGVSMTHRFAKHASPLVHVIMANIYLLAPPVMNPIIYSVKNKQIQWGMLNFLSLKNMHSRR
Procedure, shortened: as §1

[8] = system: T8, O51T1
T8 sequence (whole entry): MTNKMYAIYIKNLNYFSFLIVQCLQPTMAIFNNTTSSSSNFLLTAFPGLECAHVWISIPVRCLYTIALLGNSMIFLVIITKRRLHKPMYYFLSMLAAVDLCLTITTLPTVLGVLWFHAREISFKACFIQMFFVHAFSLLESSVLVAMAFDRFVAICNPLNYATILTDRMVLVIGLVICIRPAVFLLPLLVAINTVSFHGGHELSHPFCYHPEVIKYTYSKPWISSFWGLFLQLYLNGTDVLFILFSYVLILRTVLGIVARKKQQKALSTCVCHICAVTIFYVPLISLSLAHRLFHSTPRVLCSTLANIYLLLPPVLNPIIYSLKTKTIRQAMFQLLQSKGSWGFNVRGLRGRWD
Procedure, shortened: as §1

[9] = system: T9, O51V1
T9 sequence (whole entry): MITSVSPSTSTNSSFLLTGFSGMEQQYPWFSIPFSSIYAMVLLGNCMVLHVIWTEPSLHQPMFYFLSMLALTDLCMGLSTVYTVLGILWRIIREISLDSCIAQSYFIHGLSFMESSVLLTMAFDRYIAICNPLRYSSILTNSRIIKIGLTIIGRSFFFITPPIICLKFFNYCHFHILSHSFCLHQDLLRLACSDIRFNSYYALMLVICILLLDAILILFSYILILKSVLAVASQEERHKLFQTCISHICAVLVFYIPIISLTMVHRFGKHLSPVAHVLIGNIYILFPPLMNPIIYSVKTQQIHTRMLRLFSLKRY
Procedure, shortened: as §1

[10] = system: T10, O51V1; remark: listed apart in the source
T10 sequence (whole entry): T9 sequence (whole entry) with F30L, W53C, R90G, R189C
Procedure, shortened: as §1

[11] = system: T11, O52A1
T11 sequence (whole entry): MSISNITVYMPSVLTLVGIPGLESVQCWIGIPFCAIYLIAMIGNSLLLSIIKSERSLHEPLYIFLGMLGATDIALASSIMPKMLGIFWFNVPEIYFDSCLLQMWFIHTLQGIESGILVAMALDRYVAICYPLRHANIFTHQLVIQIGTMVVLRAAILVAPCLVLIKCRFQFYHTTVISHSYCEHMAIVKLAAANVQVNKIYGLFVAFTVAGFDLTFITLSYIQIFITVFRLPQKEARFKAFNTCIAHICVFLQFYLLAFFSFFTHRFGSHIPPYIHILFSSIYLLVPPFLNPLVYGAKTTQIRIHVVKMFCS
Procedure, shortened: as §1

[12] = system: T12, O52B2
T12 sequence (whole entry): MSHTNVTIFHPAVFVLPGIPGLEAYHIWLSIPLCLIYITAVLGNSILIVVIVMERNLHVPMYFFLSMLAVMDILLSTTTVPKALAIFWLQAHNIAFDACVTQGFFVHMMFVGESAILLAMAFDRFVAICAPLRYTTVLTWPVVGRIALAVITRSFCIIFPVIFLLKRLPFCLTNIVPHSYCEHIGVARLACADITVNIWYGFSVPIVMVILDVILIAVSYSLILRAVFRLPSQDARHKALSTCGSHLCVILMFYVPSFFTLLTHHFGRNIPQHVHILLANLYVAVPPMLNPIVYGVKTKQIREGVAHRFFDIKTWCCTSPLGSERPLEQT
Procedure, shortened: as §1

[13] = system: T13, O52B6
T13 sequence (whole entry): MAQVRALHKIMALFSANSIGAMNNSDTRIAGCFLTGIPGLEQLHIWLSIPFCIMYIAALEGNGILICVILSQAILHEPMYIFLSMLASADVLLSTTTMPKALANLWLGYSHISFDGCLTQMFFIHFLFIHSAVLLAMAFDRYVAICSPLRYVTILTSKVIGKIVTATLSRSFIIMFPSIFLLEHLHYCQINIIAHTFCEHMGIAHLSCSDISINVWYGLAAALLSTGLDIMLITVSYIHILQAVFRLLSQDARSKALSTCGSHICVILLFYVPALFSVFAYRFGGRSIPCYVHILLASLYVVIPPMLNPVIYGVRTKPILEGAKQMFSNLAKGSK
Procedure, shortened: as §1

[14] = system: O52E1
Procedure, shortened: as §1

[15] = system: O52E2
Procedure, shortened: as §1

[16] = system: O52E4
Procedure, shortened: as §1

[17] = system: O52E5
Procedure, shortened: as §1

[18] = system: O52E8
Procedure, shortened: as §1

[19] = system: T14, O52I2
T14 sequence (whole entry): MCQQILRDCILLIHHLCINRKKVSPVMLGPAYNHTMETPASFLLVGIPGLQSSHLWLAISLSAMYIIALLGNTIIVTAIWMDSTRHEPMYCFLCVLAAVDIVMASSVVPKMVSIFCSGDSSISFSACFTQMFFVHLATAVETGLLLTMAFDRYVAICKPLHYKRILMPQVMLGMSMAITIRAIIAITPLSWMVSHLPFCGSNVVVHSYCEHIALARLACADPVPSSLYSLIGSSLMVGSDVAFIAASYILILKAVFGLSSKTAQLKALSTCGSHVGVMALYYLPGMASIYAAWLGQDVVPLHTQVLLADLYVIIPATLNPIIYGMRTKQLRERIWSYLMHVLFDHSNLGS
Procedure, shortened: as §1

[20] = system: T15, O52H1
T15 sequence (whole entry): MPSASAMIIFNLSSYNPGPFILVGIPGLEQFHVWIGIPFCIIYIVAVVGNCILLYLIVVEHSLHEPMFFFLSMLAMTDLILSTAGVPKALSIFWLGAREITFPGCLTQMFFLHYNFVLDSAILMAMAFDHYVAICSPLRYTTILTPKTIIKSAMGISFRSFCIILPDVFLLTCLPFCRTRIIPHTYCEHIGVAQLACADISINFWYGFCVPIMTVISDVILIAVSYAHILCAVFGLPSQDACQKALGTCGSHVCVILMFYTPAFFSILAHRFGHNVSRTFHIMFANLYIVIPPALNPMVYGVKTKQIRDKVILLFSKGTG
Procedure, shortened: as §1

Measured: odorant receptor agonist call

CCCCCC(=O)O
active: [4] | [5]
not listed: [20]
inactive: all other assays above

COc1ccccc1O
active: [6] | [16] | [17]
not listed: [20]
inactive: all other assays above

CCCCCCCC=CC=O
not listed: [20]
inactive: all other assays above

CCCC(=O)O
active: [20]
inactive: all other assays above

CCCCCCCOC(C)=O
active: [17]
not listed: [20]
inactive: all other assays above

CC1CCC(C(C)C)C(O)C1 (centres undefined)
active: [4] | [5]
not listed: [20]
inactive: all other assays above

CC(=O)OCC=C(C)CCC=C(C)C
active: [6] | [10] | [16] | [17]
not listed: [20]
inactive: all other assays above
